Test results published in US20130189255A1, “FUSIONS AND CONJUGATES OF INSULINOTROPIC AGENTS” (GLAXO GROUP LIMITED, priority 2008, published 2013).
Results are given in words; binding and its absence hold for the method and conditions named. Some entries that bind do so weakly or less than the wild type. Where a sequence is shown, tags or fusion partners need not be part of it.

The chains behind the UniProt entries cited, without tags or fusion partners. Residues count along the entry.
UniProt P02768, residues 25-609: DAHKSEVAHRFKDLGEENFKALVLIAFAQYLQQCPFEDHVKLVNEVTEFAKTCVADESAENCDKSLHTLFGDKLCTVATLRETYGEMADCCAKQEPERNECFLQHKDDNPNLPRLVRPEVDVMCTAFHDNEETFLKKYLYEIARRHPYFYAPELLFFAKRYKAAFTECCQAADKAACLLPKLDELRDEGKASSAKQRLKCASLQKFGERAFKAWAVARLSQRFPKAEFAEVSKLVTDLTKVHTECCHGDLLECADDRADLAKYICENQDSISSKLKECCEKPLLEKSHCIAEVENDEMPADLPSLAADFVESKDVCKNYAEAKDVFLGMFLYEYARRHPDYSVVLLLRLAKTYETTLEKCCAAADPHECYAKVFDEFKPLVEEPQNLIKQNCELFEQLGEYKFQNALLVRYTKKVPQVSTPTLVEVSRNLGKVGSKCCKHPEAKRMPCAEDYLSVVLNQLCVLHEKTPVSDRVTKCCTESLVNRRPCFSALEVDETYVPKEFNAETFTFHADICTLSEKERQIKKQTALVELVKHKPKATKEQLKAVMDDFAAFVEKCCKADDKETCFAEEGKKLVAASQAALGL
UniProt P07724, residues 25-608: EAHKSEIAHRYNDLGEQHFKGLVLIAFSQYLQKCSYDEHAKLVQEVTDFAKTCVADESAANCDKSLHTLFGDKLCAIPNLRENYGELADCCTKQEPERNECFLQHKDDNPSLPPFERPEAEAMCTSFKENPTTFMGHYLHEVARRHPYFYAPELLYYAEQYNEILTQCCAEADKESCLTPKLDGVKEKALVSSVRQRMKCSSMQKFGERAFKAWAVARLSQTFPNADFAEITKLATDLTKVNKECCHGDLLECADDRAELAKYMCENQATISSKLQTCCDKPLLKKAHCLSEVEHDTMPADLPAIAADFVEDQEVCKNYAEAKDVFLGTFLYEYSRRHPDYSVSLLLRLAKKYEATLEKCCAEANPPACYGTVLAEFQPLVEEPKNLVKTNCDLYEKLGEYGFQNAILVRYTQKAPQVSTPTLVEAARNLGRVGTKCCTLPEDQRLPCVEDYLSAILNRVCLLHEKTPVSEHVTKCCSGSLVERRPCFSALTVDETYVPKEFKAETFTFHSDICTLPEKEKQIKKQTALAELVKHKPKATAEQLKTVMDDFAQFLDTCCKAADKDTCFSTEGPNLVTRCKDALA
UniProt P02770, residues 25-608: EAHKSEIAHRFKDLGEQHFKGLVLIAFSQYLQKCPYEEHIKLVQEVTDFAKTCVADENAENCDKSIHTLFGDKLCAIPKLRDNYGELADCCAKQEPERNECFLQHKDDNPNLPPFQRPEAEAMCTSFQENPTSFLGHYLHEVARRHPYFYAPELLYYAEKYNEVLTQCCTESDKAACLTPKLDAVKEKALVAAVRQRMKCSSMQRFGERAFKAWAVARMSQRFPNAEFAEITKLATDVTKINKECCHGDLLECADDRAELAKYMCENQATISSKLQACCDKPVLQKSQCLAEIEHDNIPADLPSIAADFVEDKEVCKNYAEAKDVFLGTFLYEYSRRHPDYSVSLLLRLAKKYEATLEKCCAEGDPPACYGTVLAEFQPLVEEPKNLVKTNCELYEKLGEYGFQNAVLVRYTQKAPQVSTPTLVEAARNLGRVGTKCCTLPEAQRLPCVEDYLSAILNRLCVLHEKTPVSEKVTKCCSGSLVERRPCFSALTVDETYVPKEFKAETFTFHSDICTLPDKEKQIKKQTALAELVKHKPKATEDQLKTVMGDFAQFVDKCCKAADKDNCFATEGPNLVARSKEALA

What was measured:
Assay in all cases: SPR (Biacore), albumin immobilised on CM5 chip
[1] = target: Human serum albumin (human) (UniProt P02768)
[2] = target: Mouse serum albumin (mouse) (UniProt P07724)
Rat serum albumin (rat) = Rat serum albumin (rat) (UniProt P02770)

Measured: binding

B1: 2xGLP-1 (7-37) A8G DOM7h-14 dAb fusion (DAT0114) (protein)
chain: HGEGTFTSDVSSYLEGQAAKEFIAWLVKGRHGEGTFTSDVSSYLEGQAAKEFIAWLVKGRDIQMTQSPSSLSASVGDRVTITCRASQWIGSQLSWYQQKPGKAPKLLIMWRSSLQSGVPSRFSGSGSGTDFTLTISSLQPEDFATYYCAQGAALPRTFGQGTKVEIKA
binds: [1] | [2] | Rat serum albumin (rat)
